# Assay results as given in the supplement of paper PMC10849652.
# Sequences of proteins named here, by UniProt entry; tags and fusion partners are left off. A change or cut given only in a name is not applied to a line headed by its entry.
# UniProt Q9H3H5: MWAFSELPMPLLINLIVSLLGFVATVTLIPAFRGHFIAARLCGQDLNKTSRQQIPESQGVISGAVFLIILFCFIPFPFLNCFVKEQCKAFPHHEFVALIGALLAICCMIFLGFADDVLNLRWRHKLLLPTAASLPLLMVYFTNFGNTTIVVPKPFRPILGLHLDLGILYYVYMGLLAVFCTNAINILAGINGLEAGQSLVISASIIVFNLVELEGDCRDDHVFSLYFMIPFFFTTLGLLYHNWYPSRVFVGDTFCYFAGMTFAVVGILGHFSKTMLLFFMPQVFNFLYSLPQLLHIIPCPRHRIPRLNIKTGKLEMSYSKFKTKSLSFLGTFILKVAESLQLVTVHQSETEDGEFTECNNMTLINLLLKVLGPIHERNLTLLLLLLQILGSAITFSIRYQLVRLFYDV
# UniProt Q6UX07: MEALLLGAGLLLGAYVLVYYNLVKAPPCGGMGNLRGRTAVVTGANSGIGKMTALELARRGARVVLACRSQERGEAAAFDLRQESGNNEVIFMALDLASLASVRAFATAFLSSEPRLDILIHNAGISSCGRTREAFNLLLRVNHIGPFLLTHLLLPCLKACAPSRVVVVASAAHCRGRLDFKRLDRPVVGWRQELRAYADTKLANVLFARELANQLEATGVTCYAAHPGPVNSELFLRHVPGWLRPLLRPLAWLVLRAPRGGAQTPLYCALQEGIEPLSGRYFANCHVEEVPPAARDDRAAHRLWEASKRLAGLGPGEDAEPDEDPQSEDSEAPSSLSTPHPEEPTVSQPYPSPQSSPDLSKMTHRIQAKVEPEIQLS
# UniProt Q8TE73: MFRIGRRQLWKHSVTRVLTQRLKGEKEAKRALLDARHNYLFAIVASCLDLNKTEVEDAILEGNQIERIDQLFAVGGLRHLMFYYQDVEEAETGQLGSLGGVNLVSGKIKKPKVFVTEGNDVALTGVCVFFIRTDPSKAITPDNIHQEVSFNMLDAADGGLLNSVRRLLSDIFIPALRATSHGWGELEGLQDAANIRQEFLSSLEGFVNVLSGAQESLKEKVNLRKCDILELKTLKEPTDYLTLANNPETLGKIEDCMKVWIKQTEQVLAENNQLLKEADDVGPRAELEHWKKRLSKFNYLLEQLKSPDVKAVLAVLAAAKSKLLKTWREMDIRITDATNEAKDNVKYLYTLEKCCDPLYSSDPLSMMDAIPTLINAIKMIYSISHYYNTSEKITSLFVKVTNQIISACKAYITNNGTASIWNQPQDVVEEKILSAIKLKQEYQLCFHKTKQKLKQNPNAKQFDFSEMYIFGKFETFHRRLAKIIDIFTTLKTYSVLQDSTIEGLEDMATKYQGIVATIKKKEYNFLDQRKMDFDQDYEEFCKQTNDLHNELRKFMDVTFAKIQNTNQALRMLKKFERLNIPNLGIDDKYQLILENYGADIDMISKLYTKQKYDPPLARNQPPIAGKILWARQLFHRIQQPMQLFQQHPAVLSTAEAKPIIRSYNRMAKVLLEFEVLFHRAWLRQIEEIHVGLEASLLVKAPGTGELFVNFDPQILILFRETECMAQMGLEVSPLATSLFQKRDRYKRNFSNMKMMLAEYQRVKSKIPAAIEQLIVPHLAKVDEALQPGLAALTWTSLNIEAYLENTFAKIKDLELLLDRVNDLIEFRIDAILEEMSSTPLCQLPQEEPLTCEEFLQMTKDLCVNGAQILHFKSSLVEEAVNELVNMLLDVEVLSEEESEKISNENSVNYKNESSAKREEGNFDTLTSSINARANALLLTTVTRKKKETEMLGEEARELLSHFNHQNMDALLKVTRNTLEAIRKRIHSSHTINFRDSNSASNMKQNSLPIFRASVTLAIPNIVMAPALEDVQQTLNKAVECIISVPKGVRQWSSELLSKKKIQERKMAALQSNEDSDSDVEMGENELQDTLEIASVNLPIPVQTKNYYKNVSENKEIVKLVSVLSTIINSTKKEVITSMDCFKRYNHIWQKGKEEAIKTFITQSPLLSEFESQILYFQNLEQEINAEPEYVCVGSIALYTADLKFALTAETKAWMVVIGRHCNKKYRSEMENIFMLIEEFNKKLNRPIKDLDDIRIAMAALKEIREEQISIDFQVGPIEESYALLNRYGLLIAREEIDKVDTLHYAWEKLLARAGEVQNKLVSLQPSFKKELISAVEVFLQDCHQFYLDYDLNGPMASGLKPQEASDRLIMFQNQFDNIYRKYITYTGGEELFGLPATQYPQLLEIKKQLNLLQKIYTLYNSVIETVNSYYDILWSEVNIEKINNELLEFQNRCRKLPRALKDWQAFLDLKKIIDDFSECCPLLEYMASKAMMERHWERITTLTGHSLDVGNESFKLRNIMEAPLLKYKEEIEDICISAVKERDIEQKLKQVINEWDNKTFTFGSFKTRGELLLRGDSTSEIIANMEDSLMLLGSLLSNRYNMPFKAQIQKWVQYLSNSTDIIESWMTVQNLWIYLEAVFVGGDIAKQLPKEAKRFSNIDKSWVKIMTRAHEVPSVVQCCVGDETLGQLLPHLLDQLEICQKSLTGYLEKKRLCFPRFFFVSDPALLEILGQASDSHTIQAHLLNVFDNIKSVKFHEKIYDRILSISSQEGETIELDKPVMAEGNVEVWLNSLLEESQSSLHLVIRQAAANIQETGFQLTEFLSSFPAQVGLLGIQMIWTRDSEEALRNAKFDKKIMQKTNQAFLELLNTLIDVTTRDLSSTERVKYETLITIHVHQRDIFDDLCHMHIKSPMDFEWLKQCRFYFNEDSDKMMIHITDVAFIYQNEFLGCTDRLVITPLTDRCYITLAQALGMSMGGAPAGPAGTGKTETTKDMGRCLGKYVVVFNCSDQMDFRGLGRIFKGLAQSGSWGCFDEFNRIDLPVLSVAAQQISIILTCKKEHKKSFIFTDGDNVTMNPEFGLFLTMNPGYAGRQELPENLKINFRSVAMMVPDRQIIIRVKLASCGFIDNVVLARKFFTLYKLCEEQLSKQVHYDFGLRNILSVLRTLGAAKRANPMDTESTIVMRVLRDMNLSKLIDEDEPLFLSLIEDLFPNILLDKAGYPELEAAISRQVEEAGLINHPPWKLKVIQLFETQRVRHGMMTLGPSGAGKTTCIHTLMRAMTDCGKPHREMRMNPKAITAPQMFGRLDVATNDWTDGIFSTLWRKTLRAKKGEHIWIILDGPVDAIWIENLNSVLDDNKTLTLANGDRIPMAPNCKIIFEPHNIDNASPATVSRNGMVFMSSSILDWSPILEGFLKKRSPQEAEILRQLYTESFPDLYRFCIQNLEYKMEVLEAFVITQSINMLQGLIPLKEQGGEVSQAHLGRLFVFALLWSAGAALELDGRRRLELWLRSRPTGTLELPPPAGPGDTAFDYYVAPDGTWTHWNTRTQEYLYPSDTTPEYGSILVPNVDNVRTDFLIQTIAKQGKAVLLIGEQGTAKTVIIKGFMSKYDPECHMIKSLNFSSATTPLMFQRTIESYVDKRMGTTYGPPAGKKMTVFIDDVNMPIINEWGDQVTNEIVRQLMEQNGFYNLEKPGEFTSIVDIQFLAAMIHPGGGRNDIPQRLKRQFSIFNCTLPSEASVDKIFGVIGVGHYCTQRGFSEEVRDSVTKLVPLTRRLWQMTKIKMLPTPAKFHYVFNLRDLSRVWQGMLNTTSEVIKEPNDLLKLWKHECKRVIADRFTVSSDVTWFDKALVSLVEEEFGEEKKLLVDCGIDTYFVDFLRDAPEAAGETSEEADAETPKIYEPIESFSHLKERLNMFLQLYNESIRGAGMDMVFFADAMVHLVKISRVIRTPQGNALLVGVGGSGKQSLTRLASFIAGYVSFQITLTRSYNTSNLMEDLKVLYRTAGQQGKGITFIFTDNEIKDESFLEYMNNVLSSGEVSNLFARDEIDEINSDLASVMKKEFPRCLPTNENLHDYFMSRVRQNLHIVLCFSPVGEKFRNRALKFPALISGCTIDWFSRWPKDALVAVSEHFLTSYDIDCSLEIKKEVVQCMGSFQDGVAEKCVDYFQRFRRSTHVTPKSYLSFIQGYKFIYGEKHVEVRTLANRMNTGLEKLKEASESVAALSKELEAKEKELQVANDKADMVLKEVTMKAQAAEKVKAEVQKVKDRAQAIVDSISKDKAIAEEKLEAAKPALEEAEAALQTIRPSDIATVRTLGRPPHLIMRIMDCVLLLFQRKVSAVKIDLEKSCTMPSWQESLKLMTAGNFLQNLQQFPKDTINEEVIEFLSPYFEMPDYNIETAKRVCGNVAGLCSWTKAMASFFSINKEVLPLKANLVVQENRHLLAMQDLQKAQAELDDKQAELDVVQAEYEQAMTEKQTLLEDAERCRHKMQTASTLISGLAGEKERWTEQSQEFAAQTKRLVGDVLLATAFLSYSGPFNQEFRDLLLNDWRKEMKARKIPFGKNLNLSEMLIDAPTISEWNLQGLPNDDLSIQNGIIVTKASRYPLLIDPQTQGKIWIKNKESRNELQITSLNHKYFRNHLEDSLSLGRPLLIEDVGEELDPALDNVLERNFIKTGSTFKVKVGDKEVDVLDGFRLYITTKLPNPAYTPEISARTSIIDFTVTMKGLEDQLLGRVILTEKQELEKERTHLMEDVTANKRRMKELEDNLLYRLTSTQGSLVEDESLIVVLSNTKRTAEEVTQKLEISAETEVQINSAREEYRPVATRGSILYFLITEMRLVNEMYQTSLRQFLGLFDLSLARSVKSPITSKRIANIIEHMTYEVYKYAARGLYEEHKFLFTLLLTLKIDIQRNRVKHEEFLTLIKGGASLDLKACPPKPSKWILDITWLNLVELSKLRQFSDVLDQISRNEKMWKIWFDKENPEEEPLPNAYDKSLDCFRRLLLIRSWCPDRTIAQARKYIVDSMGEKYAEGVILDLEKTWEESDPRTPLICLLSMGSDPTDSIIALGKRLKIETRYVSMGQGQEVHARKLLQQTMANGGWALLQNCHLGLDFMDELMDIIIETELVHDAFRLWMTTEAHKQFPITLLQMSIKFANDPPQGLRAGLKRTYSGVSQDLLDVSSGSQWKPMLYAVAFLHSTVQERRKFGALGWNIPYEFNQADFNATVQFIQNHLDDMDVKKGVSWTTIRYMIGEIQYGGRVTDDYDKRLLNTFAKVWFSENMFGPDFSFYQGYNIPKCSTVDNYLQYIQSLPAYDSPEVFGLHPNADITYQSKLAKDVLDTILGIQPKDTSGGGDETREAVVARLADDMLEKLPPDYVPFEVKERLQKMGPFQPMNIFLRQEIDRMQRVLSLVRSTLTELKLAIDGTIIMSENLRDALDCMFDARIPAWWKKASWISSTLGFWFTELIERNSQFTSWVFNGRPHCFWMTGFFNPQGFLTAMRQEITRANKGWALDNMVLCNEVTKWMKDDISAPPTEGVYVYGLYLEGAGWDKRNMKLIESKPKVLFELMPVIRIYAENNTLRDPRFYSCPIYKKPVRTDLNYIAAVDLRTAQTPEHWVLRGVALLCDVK
# UniProt Q5SXM8: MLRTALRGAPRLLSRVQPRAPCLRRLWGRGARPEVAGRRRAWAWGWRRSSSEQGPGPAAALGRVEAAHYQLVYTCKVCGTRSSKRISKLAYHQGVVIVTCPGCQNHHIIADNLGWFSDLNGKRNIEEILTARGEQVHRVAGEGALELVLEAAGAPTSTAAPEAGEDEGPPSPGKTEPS
# Some of the results follow.
# Experiments:
# Assay in all cases: log2 fold change, soluble protein after heating vs DMSO (PISA); higher = thermal stabilisation; K562 lysate, 10 uM; active = over 0.2 and 3.5 SD of the protein, either way, in both replicates (recomputed)
# lapatinib = compound: CS(=O)(=O)CCNCc1ccc(-c2ccc3ncnc(Nc4ccc(OCc5cccc(F)c5)c(Cl)c4)c3c2)o1 [lapatinib]
# Method in brief: (§1)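 K562 pellets were dounce-homogenised in PBS pH 7.4 with 1 mM MgCl2, and the crude extract at 1 mg/mL protein was treated with 10 μM compound for 30 min. Aliquots were heated for 3 min across 48°C-58°C, pooled, and brought to 0.5% NP-40 at 4°C; soluble protein was the supernatant after 21,000xg for 90 min. Soluble protein was quantified by TMTpro 16plex LC-MS/MS with channel sums equalised, and reported as log2 fold change in thermal stability against DMSO controls, with values from duplicates.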
# pictilisib = compound: CS(=O)(=O)N1CCN(Cc2cc3nc(-c4cccc5[nH]ncc45)nc(N4CCOCC4)c3s2)CC1 [pictilisib]
# Method in brief: as §1
# crizotinib = compound: C[C@@H](Oc1cc(-c2cnn(C3CCNCC3)c2)cnc1N)c1c(Cl)ccc(F)c1Cl [crizotinib]
# Method in brief: as §1
# [1] = compound: C[C@H](C1=CC=C(C=C1)C(=O)NC2=C3C=CNC3=NC=C2)N
# Method in brief: as §1
# gandotinib = compound: Cc1cc(Nc2cc(CN3CCOCC3)c3nc(C)c(Cc4ccc(Cl)cc4F)n3n2)n[nH]1 [gandotinib]
# Method in brief: as §1
# doramapimod = compound: Cc1ccc(-n2nc(C(C)(C)C)cc2NC(=O)Nc2ccc(OCCN3CCOCC3)c3ccccc23)cc1 [doramapimod]
# Method in brief: as §1
# bafetinib = compound: Cc1ccc(NC(=O)c2ccc(CN3CC[C@H](N(C)C)C3)c(C(F)(F)F)c2)cc1Nc1nccc(-c2cncnc2)n1 [bafetinib]
# Method in brief: as §1
# [2] = compound: Cc1cccc(CC(=O)N2CCc3c2ccc(-c2cn(C)c4ncnc(N)c24)c3F)n1
# Method in brief: as §1
# nilotinib = compound: Cc1cn(-c2cc(NC(=O)c3ccc(C)c(Nc4nccc(-c5cccnc5)n4)c3)cc(C(F)(F)F)c2)cn1 [nilotinib]
# Method in brief: as §1
# [3] = compound: Cc1nc(Nc2n[nH]c3c2CN(C(=O)N[C@H](CN(C)C)c2ccccc2)C3(C)C)c2sccc2n1
# Method in brief: as §1
# [4] = compound: Cc1ncc(-c2ccnc(Nc3ccc(S(C)(=O)=O)cc3)n2)n1C(C)C
# Method in brief: as §1
# quisinostat = compound: Cn1cc(CNCC2CCN(c3ncc(C(=O)NO)cn3)CC2)c2ccccc21 [quisinostat]
# Method in brief: as §1
# tipifarnib = compound: Cn1cncc1[C@@](N)(c1ccc(Cl)cc1)c1ccc2c(c1)c(-c1cccc(Cl)c1)cc(=O)n2C [tipifarnib]
# Method in brief: as §1
# [5] = compound: NC(=O)Nc1cc(-c2cccc(F)c2)sc1C(=O)N[C@H]1CCCNC1
# Method in brief: as §1
# [6] = compound: NC(=O)c1cnc(N[C@@H]2CCCC[C@@H]2N)nc1Nc1cccc(-n2nccn2)c1
# Method in brief: as §1
# [7] = compound: NC1(c2ccc(-c3nc4ccn5c(=O)[nH]nc5c4cc3-c3ccccc3)cc2)CCC1
# Method in brief: as §1
# duvelisib = compound: C[C@H](Nc1ncnc2nc[nH]c12)c1cc2cccc(Cl)c2c(=O)n1-c1ccccc1 [duvelisib]
# Method in brief: as §1
# tozasertib = compound: Cc1cc(Nc2cc(N3CCN(C)CC3)nc(Sc3ccc(NC(=O)C4CC4)cc3)n2)n[nH]1 [tozasertib]
# Method in brief: as §1
# dasatinib = compound: Cc1nc(Nc2ncc(C(=O)Nc3c(C)cccc3Cl)s2)cc(N2CCN(CCO)CC2)n1 [dasatinib]
# Method in brief: as §1
# [8] = compound: Cn1cc(-c2ccc3c(c2)CCN3C(=O)Cc2cccc(C(F)(F)F)c2)c2c(N)ncnc21
# Method in brief: as §1
Target,log2 fold change (lapatinib),log2 fold change (pictilisib),log2 fold change (crizotinib),log2 fold change [1],log2 fold change (gandotinib),log2 fold change (doramapimod),log2 fold change (bafetinib),log2 fold change [2],log2 fold change (nilotinib),log2 fold change [3],log2 fold change [4],log2 fold change (quisinostat),log2 fold change (tipifarnib),log2 fold change [5],log2 fold change [6],log2 fold change [7],log2 fold change (duvelisib),log2 fold change (tozasertib),log2 fold change (dasatinib),log2 fold change [8]
DHTKD1 (UniProt Q96HY7),inactive: 0.021,inactive: 0.085,inactive: -0.053,inactive: 0.113,inactive: 0.04,inactive: -0.042,inactive: -0.12,inactive: -0.119,inactive: 0.031,inactive: -0.173,inactive: 0.177,inactive: -0.114,inactive: -0.109,inactive: 0.034,inactive: 0.054,inactive: -0.108,,,,
DNHD1 (UniProt Q96M86),inactive: -0.05,inactive: -0.095,inactive: -0.004,,,inactive: -0.015,inactive: -0.42,,,,,inactive: -0.211,,inactive: -0.022,inactive: 0.094,inactive: -0.024,,,,
DNM2 isoform 4 (UniProt P50570),inactive: 0.031,,inactive: 0.014,inactive: -0.16,inactive: -0.134,inactive: 0.066,,inactive: 0.16,inactive: 0.078,inactive: -0.018,inactive: -0.03,inactive: 0.025,inactive: -0.12,inactive: 0.088,inactive: 0.044,inactive: -0.181,inactive: 0.015,inactive: -0.084,inactive: -0.095,inactive: 0.162
DNPEP (UniProt C9JBE1),inactive: -0.035,inactive: 0.049,,inactive: -0.306,inactive: 0.105,,inactive: -0.239,inactive: 0.171,inactive: -0.049,inactive: -0.006,inactive: 0.018,,inactive: -0.132,,inactive: 0.019,,,inactive: 0.082,,
DPAGT1 (UniProt Q9H3H5),inactive: -0.027,inactive: 0.044,inactive: 0.007,inactive: -0.142,inactive: 0.112,inactive: 0.031,inactive: 0.062,inactive: 0.086,inactive: -0.037,inactive: 0.01,inactive: -0.033,inactive: -0.036,inactive: -0.06,inactive: 0.001,inactive: 0.004,inactive: 0.044,,,,
DMTN isoform 2 (UniProt Q08495),inactive: -0.061,,inactive: 0.039,inactive: -0.018,inactive: -0.06,inactive: 0.022,,inactive: 0.035,,,,inactive: -0.126,,inactive: -0.076,inactive: 0.014,inactive: -0.041,inactive: -0.027,inactive: -0.069,inactive: -0.032,inactive: -0.143
DHRS13 (UniProt Q6UX07),inactive: 0.048,inactive: -0.052,inactive: -0.048,,,inactive: 0.087,inactive: -0.113,,inactive: 0.133,inactive: 0.385,inactive: -0.142,inactive: 0.078,inactive: -0.223,inactive: -0.011,inactive: -0.08,inactive: -0.121,inactive: 0.185,,inactive: 0.048,inactive: 0.142
DNAH5 (UniProt Q8TE73),inactive: 0.043,inactive: -0.005,,active: -0.422,inactive: 0.181,,inactive: -0.047,inactive: 0.175,inactive: -0.029,inactive: -0.036,inactive: -0.013,,inactive: -0.128,,inactive: -0.073,inactive: -0.049,inactive: -0.051,,inactive: -0.072,inactive: -0.156
DNASE1L1 (UniProt P49184),inactive: -0.156,,,inactive: -0.042,inactive: -0.047,,,inactive: 0.079,inactive: 0.308,inactive: -0.299,inactive: -0.362,,inactive: -0.221,,inactive: -0.275,,,,,
DOK2 (UniProt O60496),inactive: 0.151,,,inactive: -0.087,inactive: 0.15,,,inactive: -0.12,,,,,,,inactive: 0.064,inactive: -0.043,,,,
DIPK2A (UniProt Q8NDZ4),inactive: -0.143,inactive: 0.03,inactive: -0.13,inactive: -0.163,inactive: -0.186,inactive: 0.011,inactive: -0.068,inactive: 0.105,,,,inactive: 0.053,,inactive: -0.022,inactive: 0.062,inactive: -0.071,inactive: -0.004,inactive: 0.122,inactive: -0.069,inactive: -0.037
DNAJB1 (UniProt M0R128),inactive: -0.276,inactive: 0.156,,inactive: -0.415,inactive: 0.339,,inactive: -0.639,inactive: 0.528,inactive: -0.133,inactive: 0.128,inactive: -0.074,,inactive: -0.02,,inactive: 0.189,inactive: -0.303,,,,
DNMT3A (UniProt Q9Y6K1),inactive: -0.133,,,inactive: 0.142,inactive: -0.17,,,inactive: -0.229,,,,,,,inactive: -0.016,inactive: -0.202,,,,
DNLZ (UniProt Q5SXM8),inactive: 0.152,,,inactive: 0.08,inactive: -0.069,,,inactive: 0.048,inactive: 0.123,inactive: -0.227,inactive: 0.235,,inactive: -0.028,,inactive: 0.074,inactive: 0.092,,,,

# A stretch from further up, for reference:
Target,log2 fold change (lapatinib),log2 fold change (pictilisib),log2 fold change (crizotinib),log2 fold change [1],log2 fold change (gandotinib),log2 fold change (doramapimod),log2 fold change (bafetinib),log2 fold change [2],log2 fold change (nilotinib),log2 fold change [3],log2 fold change [4],log2 fold change (quisinostat),log2 fold change (tipifarnib),log2 fold change [5],log2 fold change [6],log2 fold change [7],log2 fold change (duvelisib),log2 fold change (tozasertib),log2 fold change (dasatinib),log2 fold change [8]
DNASE1L1 (UniProt P49184),inactive: -0.156,,,inactive: -0.042,inactive: -0.047,,,inactive: 0.079,inactive: 0.308,inactive: -0.299,inactive: -0.362,,inactive: -0.221,,inactive: -0.275,,,,,
DOK2 (UniProt O60496),inactive: 0.151,,,inactive: -0.087,inactive: 0.15,,,inactive: -0.12,,,,,,,inactive: 0.064,inactive: -0.043,,,,
